Source: article PMC5510004, “Recruitment and positioning determine the specific role of the XPF‐ERCC1 endonuclease in interstrand crosslink repair”
These are yes or no findings as the source states them, for the method shown. Where a sequence is shown, tags or fusion partners need not be part of it.

Target: T1, His-tagged human ERCC1 (human) (UniProt P07992)
T1 sequence: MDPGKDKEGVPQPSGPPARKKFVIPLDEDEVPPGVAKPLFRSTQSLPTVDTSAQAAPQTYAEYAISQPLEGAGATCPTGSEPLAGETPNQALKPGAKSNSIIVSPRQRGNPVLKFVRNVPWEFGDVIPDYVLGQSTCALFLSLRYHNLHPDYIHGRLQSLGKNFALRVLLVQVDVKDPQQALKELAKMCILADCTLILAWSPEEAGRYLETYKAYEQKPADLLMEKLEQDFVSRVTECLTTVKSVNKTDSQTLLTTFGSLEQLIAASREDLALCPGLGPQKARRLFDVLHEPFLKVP
Assay: SEC; Superdex 200; FLAG-XPF-ERCC1 heterodimer, His-BTB and both combined, excess of BTB domain; fractions blotted with α-XPF and α-His; both purified

- binding: no binding
Substance: His-tagged BTB domain of Xenopus laevis SLX4 (domain or fragment)
